Data taken from PMC7819943, “Rice protein-binding microarrays: a tool to detect cis-acting elements near promoter regions in rice”.
The other results are listed elsewhere or left out.

The sequences below were run against T1, OsSMF1 (Oryza sativa, UniProt Q6ZLB0 1-436) (assay: protein-binding microarray (RPBM); PBS, 2% BSA, 51.3 ng/ul salmon testes DNA, 50 uM zinc acetate, 200 nM TF, 25 C, 1 h; high values mean tight binding). Conditions: protein: recombinant; tags: N-terminal polyhistidine and DsRed monomer fusion (pET32a); chain copies: 2; label: CyDye5-dUTP incorporated in the synthesized complementary strand; 3' TTTTT single-stranded linker to array surface; dsDNA, one strand shown.
T1 sequence: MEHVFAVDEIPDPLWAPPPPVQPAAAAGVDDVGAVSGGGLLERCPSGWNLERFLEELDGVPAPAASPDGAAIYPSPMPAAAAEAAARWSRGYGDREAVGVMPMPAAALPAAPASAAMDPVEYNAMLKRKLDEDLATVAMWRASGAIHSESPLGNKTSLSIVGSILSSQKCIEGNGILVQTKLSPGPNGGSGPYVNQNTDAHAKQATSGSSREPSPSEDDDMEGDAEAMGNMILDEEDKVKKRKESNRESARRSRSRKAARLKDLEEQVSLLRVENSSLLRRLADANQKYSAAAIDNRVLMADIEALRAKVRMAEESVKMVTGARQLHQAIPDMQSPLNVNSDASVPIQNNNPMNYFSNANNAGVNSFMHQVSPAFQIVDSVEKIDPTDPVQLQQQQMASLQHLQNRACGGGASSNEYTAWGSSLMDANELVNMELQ
How it was run: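 The binding signal is fluorescence intensity per feature, in arbitrary units, read on an Axon 4000B scanner. Polyhistidine- and DsRed-tagged transcription factors (N-terminal fusions) from E. coli BL21-CodonPlus were purified on Ni–NTA and applied at 200 nM for 1 h at 25 °C to a double-stranded, BSA-blocked custom Agilent array in buffer with 50 µM zinc acetate.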

Sequence | binding signal
CTATGTGGTGGACGTGGGATACGCCGACGGTCGGGCTGAACGGAGTCACCTAGTGCAG | 5060 fluorescence intensity (a.u.)
AGCTCTCGCTCCCGATGCCACACGCTGACGCTGTGCTCGTCGGAGTCACCTAGTGCAG | 5190 fluorescence intensity (a.u.)
GCCTGAAATCCTGAATCCACATCATTCTATAGTCCCTGTCCGGAGTCACCTAGTGCAG | 7060 fluorescence intensity (a.u.)
GTAAATATGACACATCCTAATAATCTAATCTAGCCGTCTACGGAGTCACCTAGTGCAG | 3540 fluorescence intensity (a.u.)
CCTCCTCCTCAGCCCATGTACAGTGCGTTCCCCATTAGCTCGGAGTCACCTAGTGCAG | 22800 fluorescence intensity (a.u.)
AGCAATTAGATCCTTTTGCATTGGATGGTAGTTTGCCAATCGGAGTCACCTAGTGCAG | 28600 fluorescence intensity (a.u.)
CTAACATGTTCATGCTGACTCAACAGCCACATCGAACAAACGGAGTCACCTAGTGCAG | 9780 fluorescence intensity (a.u.)
CTCCCCTCCCTTCGCCTCCGGCTCCTATCCCATCCGCATACGGAGTCACCTAGTGCAG | 38100 fluorescence intensity (a.u.)
TGCAAAATAACCAGTGTCGACGCGGCCGCACCTGCGCTCGCGGAGTCACCTAGTGCAG | 37900 fluorescence intensity (a.u.)
TTTGTGCATGCTTTATGTGTGATTTAACTTGGATAAATTTCGGAGTCACCTAGTGCAG | 3190 fluorescence intensity (a.u.)
TTTATATCCATAAATAAATAGATATACACAGCTAAAGATCCGGAGTCACCTAGTGCAG | 4930 fluorescence intensity (a.u.)
AGGACGCGACGTTCAGCGGGGCGGACCTGGCGGCGCTGATCGGAGTCACCTAGTGCAG | 36900 fluorescence intensity (a.u.)
TCCAGTTTTGGTCTGGGTGATGTGTCATGTTCTGATTGGCCGGAGTCACCTAGTGCAG | 12300 fluorescence intensity (a.u.)
CTTTTACTTTGTCATTACTTGGTATATCCACAGTTTGTCTCGGAGTCACCTAGTGCAG | 3860 fluorescence intensity (a.u.)
CTAGCAGCATGACGCATTGACGCAGACGGAGTACTCGAGACGGAGTCACCTAGTGCAG | 3970 fluorescence intensity (a.u.)
ATTAGATTTACCGCAAACAATGACGTCCTCCCTGCCTGGACGGAGTCACCTAGTGCAG | 4900 fluorescence intensity (a.u.)
GGAACCTTGCAATGTTTAACATTTGTCAAACTGTGTGGCACGGAGTCACCTAGTGCAG | 4780 fluorescence intensity (a.u.)
GGTAGAAGTCCTGTCCGTGCTCCTGAAAGAAGTGAAAGCACGGAGTCACCTAGTGCAG | 36900 fluorescence intensity (a.u.)
ATGCTTTACCGTCTGACAACTCAGGTTGGACATTCTGTGGCGGAGTCACCTAGTGCAG | 3480 fluorescence intensity (a.u.)
TTCATAGGCTTTGTGGTGGTGCTCGATTGGATAATTCTTCCGGAGTCACCTAGTGCAG | 3440 fluorescence intensity (a.u.)
ATTCATCCTGGAGTGGACAAAGTCATCACAGGCGCCTCGCCGGAGTCACCTAGTGCAG | 3650 fluorescence intensity (a.u.)

Sequence | binding signal
GCAGGAGCAAAGCGCTTACTTTTGCCTCACACTGTATAGTCGGAGTCACCTAGTGCAG | 45400 fluorescence intensity (a.u.)
CATAATCGACTTTTAACATTTATTTTACAGTGATGGTTTTCGGAGTCACCTAGTGCAG | 3490 fluorescence intensity (a.u.)
ACTCTACAAGTCGACATTAACGTTGTGACAGTGTTTCTTTCGGAGTCACCTAGTGCAG | 3800 fluorescence intensity (a.u.)
CAATGAGACCGCGTATTAATTCAGGTCACCCAAATTTGCACGGAGTCACCTAGTGCAG | 7490 fluorescence intensity (a.u.)
GAGCAAGGCGATGCTACTTGTATGTGACTGTACGTGACGCCGGAGTCACCTAGTGCAG | 5600 fluorescence intensity (a.u.)
TACTCTCTTCGTTTCATATTATAAGTCGTTTGACTCTTTTCGGAGTCACCTAGTGCAG | 3230 fluorescence intensity (a.u.)
TGAGACCGGCAGCACTCTAGTCAATACTCTATGACTTCTTCGGAGTCACCTAGTGCAG | 4290 fluorescence intensity (a.u.)
CCATGTCGCCGCCTTCCCGTCCCCATCCGCGTCGCCACCGCGGAGTCACCTAGTGCAG | 6350 fluorescence intensity (a.u.)
GCCAACACACGTGGTACCTGTACTGGGACACGCATGCTGACGGAGTCACCTAGTGCAG | 7750 fluorescence intensity (a.u.)
ATAGAAGGAAGGATTATTACTATAATAAAATGATAAACAACGGAGTCACCTAGTGCAG | 38600 fluorescence intensity (a.u.)
TTCTTTACAACTATACCAGTGAGGTATGAGGTGCCTATCTCGGAGTCACCTAGTGCAG | 23600 fluorescence intensity (a.u.)
TGATCTGATGGCTTAAAATTGTTGATGATGTGGCTTCTTGCGGAGTCACCTAGTGCAG | 11300 fluorescence intensity (a.u.)
CTGGATCGAATTGCCACGTAAGCGCCACGTCAGTGCCACACGGAGTCACCTAGTGCAG | 20700 fluorescence intensity (a.u.)
TGACCAGTGCGGATTCCATGTGTGCCACAACATGTGCCTTCGGAGTCACCTAGTGCAG | 4130 fluorescence intensity (a.u.)
GACTTCTCTCGCGCCGGCCACCGTCACCTCACACAGGCCCCGGAGTCACCTAGTGCAG | 3420 fluorescence intensity (a.u.)
GGTTCGCAAACCCATTACCTTGAGTCATATTGTGTGGCAACGGAGTCACCTAGTGCAG | 4800 fluorescence intensity (a.u.)
GATTTCAGAACATGGATTGACGTGTATTTCGGTGAATTTGCGGAGTCACCTAGTGCAG | 7080 fluorescence intensity (a.u.)
ATCGGACGGTGGCAGGGCTCTTCCCGCCCACGCCCAATACCGGAGTCACCTAGTGCAG | 4380 fluorescence intensity (a.u.)
GGCAGTATGCTGTATGCAATAGTCACGGGTACATAGGGTGCGGAGTCACCTAGTGCAG | 3270 fluorescence intensity (a.u.)
GATTTGTCAAAGATTCTCTCTTCACGATAACATGGTTTAGCGGAGTCACCTAGTGCAG | 20600 fluorescence intensity (a.u.)
CGCGCGTGGTGGTTGGGTGTGCGGGGTGTGCAAACCCTAGCGGAGTCACCTAGTGCAG | 3980 fluorescence intensity (a.u.)

Some values from the list.
binding signal with CTCCCCTCCCTTCGCCTCCGGCTCCTATCCCATCCGCATACGGAGTCACCTAGTGCAG reads 38100 fluorescence intensity (a.u.)
binding signal with TGACCAGTGCGGATTCCATGTGTGCCACAACATGTGCCTTCGGAGTCACCTAGTGCAG reads 4130 fluorescence intensity (a.u.)
